# From patent publication US20180015038A1, “OMEGA-3 FATTY ACID SELF-EMULSIFYING COMPOSITION” (MOCHIDA PHARMACEUTICAL CO., LTD., priority 2015, published 2018)
# Assay: Dissolution of the statin in the self-emulsifying composition on preparation
# Assay type: physicochemical
# Details: statin added to self-emulsifying composition, 50° C., stirring, ultrasonication
# Experimental: • (1) 2.12 g of water, 18 g of polyoxyethylene (20) sorbitan oleate ester, 18 g of Polyoxyl 35 castor oil, 11 g of soybean lecithin, and 204.6 g of EPA-E were weighed, sealed in a container, heated to about 70° C. with mixing to prepare a self-emulsifying composition. • (2) 6.3 g of the self-emulsifying composition of (1) was weighed, and after adding 10 mg of pitavastatin calcium in the case of Example 1 or 40 mg of pitavastatin calcium in the case of Example 2, the mixture was heated to 50° C., stirred, and subjected to ultrasonication to prepare each pharmaceutical composition. The resulting pharmaceutical composition was purged with nitrogen, sealed in a container, and stored at room temperature until the evaluation was conducted.
smiles,measurement,value
CC(C)c1c(C(=O)Nc2ccccc2)c(-c2ccccc2)c(-c2ccc(F)cc2)n1CC[C@@H](O)C[C@@H](O)CC(=O)[O-].CC(C)c1c(C(=O)Nc2ccccc2)c(-c2ccccc2)c(-c2ccc(F)cc2)n1CC[C@@H](O)C[C@@H](O)CC(=O)[O-].[Ca+2] [atorvastatin calcium],dissolution of the statin in the pharmaceutical composition,did not dissolve
